Experimental data as given in patent publication US20040248767A1 (AUTOGEN RESEARCH, published 2004).
These are yes or no findings as the source states them, for the method shown. Some binding calls cover weakened binding; strength is not graded here. Sequences can lack the tags named with a protein.

B1: GST-full-length Tanis (protein, not shown: a dimerising Fc or GST; small tags and cut ends)
chain: MESAEEPLPARPALETEGLRFLHVTVGSLLASYGWYVLFSCILLYIVIQKLSVRLRVLRQRQLDQADAVLEPDAVVKRQEALAAARLRMQEDLNAQVEKHKEKLRQLEEEKRRQKIEMWDSMQEGRSYRRNPGRPQEEDGPGPSTSSSVTRKGKSDKKPLRGNGYNPLTGEGGGTCAWRPGRRGPSSGG
B2: GST-fused C tanis (117-189aa) (protein, not shown: a dimerising Fc or GST; small tags and cut ends)
chain: EMWDSMQEGRSYRRNPGRPQEEDGPGPSTSSSVTRKGKSDKKPLRGNGYNPLTGEGGGTCAWRPGRRGPSSGG

Tests used:
[1] = target: T1, Serum amyloid A (SAA) purified from human sera / human plasma (Trace Scientific) (human) (UniProt P0DJI8); assay: SPR (Biacore J), SAA on chip, GST-FLtanis injected
T1 sequence (looked up): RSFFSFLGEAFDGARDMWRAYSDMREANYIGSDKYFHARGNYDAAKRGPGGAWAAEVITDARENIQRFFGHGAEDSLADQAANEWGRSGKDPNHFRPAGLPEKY

[2] = target: T1, Serum amyloid A (SAA) purified from human sera / human plasma (Trace Scientific) (human); assay: SPR (Biacore J), SAA on CM5 chip, GST-FLtanis injected
[3] = target: T1, Serum amyloid A (SAA) purified from human sera / human plasma (Trace Scientific) (human); assay: SPR (Biacore J), human plasma SAA on CM5 chip, GST-full-length Tanis injected
[4] = target: T1, Serum amyloid A (SAA) purified from human sera / human plasma (Trace Scientific) (human); assay: SPR (Biacore J), SAA on CM5 chip, GST-fused fragment injected

Binder	binding [1]	binding [2]	binding [3]	binding [4]
B1	binds	binds	binds	
B2				binds
